Data source: PubChem BioAssay AID504784 (Drosophila RNAi Screening Center, 2011)
Purpose: 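Search for regulators of lipid droplet storage in oleate-fed fly cells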 (primary screen). Cells: Drosophila Kc167 embryonic cells. Reagents: long dsRNA against Drosophila genes, about 250 ng dsRNA per well. Duration: 4 days. Conditions: cells fed 400 µM oleic acid bound to BSA. Detection: 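Cells imaged and segmented; ratio of lipid droplet area to nuclear area, log-transformed, then normalised as a B-score over the screen; higher means more stored lipid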. Scale: droplet/nuclear area B-score: higher = more stored lipid (overstorage).
In all, the deposit lists about 17,000 reagents; shown is an unselected part of those with a known target gene and a result. 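Each column is one replicate's B-score; the combined score over replicates was not deposited, so single values may mislead.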 Further read-outs or replicates are left out here.

With knock-down of CG11474 [DRSC04112] the results were droplet/nuclear area B-score, replicate 1 = 0.0141.
For CG5188 [DRSC02826] the deposit lists droplet/nuclear area B-score, replicate 1 = -1.4.
Knock-down of CG9825 [DRSC04569] resulted in: droplet/nuclear area B-score, replicate 1 = -0.517.
After knock-down of hfw [DRSC18506], the record shows droplet/nuclear area B-score, replicate 1 = -1.13.
After knock-down of Afg3l2 [DRSC10657], the record shows droplet/nuclear area B-score, replicate 1 = 0.084.
CG32221 [DRSC09638] gave droplet/nuclear area B-score, replicate 1 = -0.54.
With knock-down of CG9222 [DRSC03158] the results were droplet/nuclear area B-score, replicate 1 = -2.4.
Knock-down of CG8565 [DRSC20112] resulted in: droplet/nuclear area B-score, replicate 1 = -0.34.
For jus [DRSC14861], the entry reads droplet/nuclear area B-score, replicate 1 = 0.191.
Depletion of jus [DRSC14862] resulted in: droplet/nuclear area B-score, replicate 1 = 0.614.
jus [DRSC23018] showed droplet/nuclear area B-score, replicate 1 = 1.31.
Knock-down of CG6739 [DRSC02987] gave: droplet/nuclear area B-score, replicate 1 = 0.844.
gl [DRSC16957] scored droplet/nuclear area B-score, replicate 1 = -0.211.
Silencing of CG3649 [DRSC04400] resulted in: droplet/nuclear area B-score, replicate 1 = 0.905.
Against CG3610 [DRSC15502] the deposit lists droplet/nuclear area B-score, replicate 1 = 0.522.
After knock-down of CG31464 [DRSC14345], the screen gave droplet/nuclear area B-score, replicate 1 = -1.92.
After knock-down of CG30440 [DRSC04775] the results were droplet/nuclear area B-score, replicate 1 = -0.289.
For CG30440 [DRSC04845], the entry reads droplet/nuclear area B-score, replicate 1 = -0.0871.
With knock-down of CG30440 [DRSC04855], the screen gave droplet/nuclear area B-score, replicate 1 = 1.61.
Depletion of bib [DRSC03496] resulted in: droplet/nuclear area B-score, replicate 1 = 1.29.
CG3253 [DRSC04350] scored droplet/nuclear area B-score, replicate 1 = 0.0722.
Teh3 [DRSC08537] gave droplet/nuclear area B-score, replicate 1 = 0.0275.
Knock-down of CG12991 [DRSC19511] resulted in: droplet/nuclear area B-score, replicate 1 = -0.482.
Against Rh6 [DRSC16823], the entry reads droplet/nuclear area B-score, replicate 1 = -1.01.
After knock-down of CG30187 [DRSC22461], the record shows droplet/nuclear area B-score, replicate 1 = 0.28.
Knock-down of CG31886 [DRSC03248] resulted in: droplet/nuclear area B-score, replicate 1 = 0.739.
CG32829 [DRSC00961] gave droplet/nuclear area B-score, replicate 1 = 5.01.
CG32829 [DRSC22805] gave droplet/nuclear area B-score, replicate 1 = 0.361.

3 entries from above, sorted by “droplet/nuclear area B-score, replicate 1”, descending:
Afg3l2 [DRSC10657] → droplet/nuclear area B-score, replicate 1: 0.084
CG32221 [DRSC09638] → droplet/nuclear area B-score, replicate 1: -0.54
CG9222 [DRSC03158] → droplet/nuclear area B-score, replicate 1: -2.4
